In all, about 360,000 compounds went through this assay and about 1,100 (0.31%) were called active. The inconclusive results got no clear call from the source; some entries with a clear call stand among them for comparison. Cut-off read from the data, not from the text of the source: active = activity change below about -80%; inconclusive = mostly about -51% to -80%; inactive = weaker than that.
target: RAC-alpha serine/threonine-protein kinase (Homo sapiens) (UniProt P31749); experiment: HTS Assay for Inhibitors of Akt Phophorylation: Primary Screen; conditions: Neuro2A IGF-stimulated pAkt S473 HTRF, 20 min; at 50 µM, active compounds read low
Method in brief: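 Neuro2A cells (4,500/well, DMEM with 0.5% FBS) were treated with compound at a single 50 µM final concentration, stimulated with 6 nM IGF for 20 min at 37 °C, and lysed. Phospho-Akt Ser473 was read by HTRF as 665/615 ratio ×10^4.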
% is set by controls: 0 for no effect and ±100 for the full control effect.

| SMILES | activity change |
| --- | --- |
| CCC(=O)N1CCc2cc(Br)cc(S(=O)(=O)CC(=O)OC)c21 | active: -107% |
| O=C(CSc1ccc2c(c1)OCCO2)NCCN1C(=O)CSC1=O | active: -109% |
| CCn1c(=S)[nH]c2nc3c(cc2c1=O)CCCC3 | inconclusive: -70% |
| Cc1ccc(-c2nnc3ccc(SCC(=O)NCc4ccco4)nn23)cc1 | inconclusive: -71.5% |
| O=C(Cc1cccc2ccccc12)Nc1ccc(-c2cc3ccccc3oc2=O)cc1 | inconclusive: -70.8% |
| CCOC(=O)C(C)On1c(-c2cccc(Cl)c2)nc2ccc([N+](=O)[O-])cc21 (stereo not given) | inconclusive: -58.7% |
| CCCCn1nnc(NC(=O)c2sc3cc(Cl)ccc3c2Cl)n1 | inconclusive: -57.2% |
| O=C(CCCOc1ccc(Cl)cc1)Nc1nncs1 | active: -112% |
| COc1ccc(C=O)cc1COc1ccc(Cl)cc1[N+](=O)[O-] | inconclusive: -77.8% |
| COC(=O)c1cc(OC)c(OC)cc1NC(=O)c1ccc(Br)o1 | inconclusive: -57.9% |
| Cc1ccc2nc(SCC(=O)NCc3ccco3)c(C#N)cc2c1 | inconclusive: -57.4% |
| CCn1nc(-c2ccccc2)c2nc3ccccc3nc21 | inactive: 8.89% |
| COc1ccnc(CSC(N)=Nc2cccc(C(F)(F)F)c2)c1 | inactive |
| CCN1CCCC1CNC(=O)Cn1cccc1C(=O)c1ccccc1 (stereo not given) | inconclusive: -53.6% |
| CC(C)OC(=O)CSc1nc2cc3c(cc2cc1C#N)OCO3 | active: -97.1% |
| O=S(=O)(NCc1cc(-c2ccccc2Cl)no1)c1ccccc1 | inconclusive: -65% |
| O=S1(=O)CCC(NS(=O)(=O)/C=C/c2ccccc2)C1 (stereo not given) | active: -114% |
| COC(=O)c1sc(NC(=O)c2ccc(OC)cc2OC)nc1C | inconclusive: -57.3% |
| Cc1cnn(C(=S)NCC2CCCO2)c1 (stereo not given) | active: -103% |
| Cn1ncc(Br)c1C(=O)Nc1ccc(Cl)cn1 | inconclusive: -51.9% |

An excerpt from above in order of SMILES length, largest number first.

| SMILES | activity change |
| --- | --- |
| Cc1ccc(-c2nnc3ccc(SCC(=O)NCc4ccco4)nn23)cc1 | inconclusive: -71.5% |
| O=S1(=O)CCC(NS(=O)(=O)/C=C/c2ccccc2)C1 (stereo not given) | active: -114% |
| CCN1CCCC1CNC(=O)Cn1cccc1C(=O)c1ccccc1 (stereo not given) | inconclusive: -53.6% |

(continued)

| SMILES | activity change |
| --- | --- |
| C/C=C/C=C\C(=O)Nc1cccc(C2=NOC3(C2)C[C@@H](C(N)=O)N(C(=O)c2cc([N+](=O)[O-])cc([N+](=O)[O-])c2C)C3)c1 (stereo not given in full) | inactive |
| CN1CCN(C(=O)c2cc3sc4ccccc4c3s2)CC1 | inactive |
| CN(C)c1ccc(N=Cc2ccco2)cc1 | inconclusive: -53.9% |
| O=S(=O)(c1ccc2nc(-c3ccco3)c(-c3ccco3)nc2c1)N1CCOCC1 | inactive: -0.565% |
| Cc1ccc(C)c(Oc2ncnc(N)c2[N+](=O)[O-])c1 | inactive |
| Cc1cccc(N(CC(=O)Nc2c(C)n(C)n(-c3ccccc3)c2=O)S(C)(=O)=O)c1C | inconclusive: -64.7% |
| COc1cc2c(=O)n(Cc3ccccc3)c(=O)n(CC(=O)NCc3ccco3)c2cc1OC | inconclusive: -53.3% |
| Cc1ccc(NC(=O)c2ccc3c(c2)N(CC(=O)N2CCCCC2)C(=O)C(C)(C)O3)cc1 | active: -121% |
| O=C(Nc1ccc2c(c1)Cc1ccccc1-2)c1cc2ccccc2o1 | inconclusive: -69% |
| N#Cc1c(N)sc(=S)c2c1CCCC2 | inconclusive: -52% |
| CCOC(=O)c1cnc2c(-c3ccccc3)c(C)nn2c1N | inconclusive: -59.8% |
| COc1cccc(-c2nnc(NC(=O)Cc3cccs3)s2)c1 | inconclusive: -69.1% |
| CC(C)c1nc2sc3c(SCC(=O)NCc4ccco4)ncnc3c2c2c1CCC2 | active: -95.2% |
| Cc1ccc(NC(=S)NCc2ccccc2)c(C)c1 | inactive |
| Cc1ccc2nc(-c3ccncc3)cc(-c3ccccc3)c2c1 | inactive |
| O=C(CSc1nc2c(c(C(F)(F)F)n1)CCc1ccccc1-2)NCc1ccc(F)cc1 | inconclusive: -76.6% |
| COc1ccc(-c2oc3ncn4nc(Cc5ccccc5)nc4c3c2-c2ccc(OC)cc2)cc1 | inconclusive: -65.9% |
| CCCCc1cc(=O)oc2cc(OCC(=O)N3CCc4ccccc43)ccc12 | inconclusive: -58.7% |
| Cc1ccc(S/C=C\C(=O)c2ccccc2)cc1 | inconclusive: -78.4% |
| CC1CCN(c2nc3ccccc3nc2C(C#N)C(=O)OC2CCCCC2)CC1 (stereo not given) | inconclusive: -66.8% |

| SMILES | activity change |
| --- | --- |
| CCc1nc(OCc2ccccc2)c2sc3nc4c(cc3c2n1)COC(C)(C)C4 | inconclusive: -56.9% |
| O=C(CSc1nc2ccccc2c(=O)n1Cc1ccccc1)NCc1ccco1 | inconclusive: -61.9% |
| COc1ccc(C2=NN3C(C2)c2ccccc2OC32C(=O)N(C)c3ccccc32)cc1 (stereo not given) | inactive |
| O=C(Nc1ccc2oc(-c3cccnc3)nc2c1)c1ccc(Br)o1 | inconclusive: -54% |
| CCOC(=O)c1sc(NC(=O)c2cc3c(s2)CCC(C)C3)nc1C (stereo not given) | inconclusive: -53.4% |
| O=C(CSc1nc2ccccc2s1)N/N=C/c1cc([N+](=O)[O-])ccc1O | inactive |
| Cc1cccc(/C(N)=N/OC(=O)c2cccnc2)c1 | inactive |
| Cc1cc2nc3c(=O)[nH]c(=O)[nH]c3nc2c([N+](=O)[O-])c1N | inactive |
| O=C(O)c1ccc(Cl)cc1NC(=O)C1CCCO1 (stereo not given) | inconclusive: -68.4% |
| CN(/N=C/c1ccc2c(c1)OCO2)c1ccccc1 | inactive |
| N#Cc1c2ncn(CC(=O)c3ccc(Br)cc3)c(=O)c2c2n1CCC2 | inconclusive: -51.7% |
| CC1=CC(C)(C)N2C(=O)C3(SCC(=O)N3c3ccc(F)cc3)c3cc(C)cc1c32 (stereo not given) | inconclusive: -66.4% |
| Cc1ccccc1Cn1cc(NC(=O)c2cc(-c3cccs3)on2)cn1 | inconclusive: -78.6% |
| CCOC(=O)c1c(C)c(C#N)c2c3ccccc3ccn12 | inconclusive: -61.7% |
| CC1(c2cc(C(F)(F)F)n3nc(C(=O)O)cc3n2)CC1 | inconclusive: -75.9% |
| C=CCNC(=O)Nc1ccc(OCC)cc1 | inconclusive: -79.2% |
| CC1CCc2c(nc3nc[nH]n3c2=O)C1 (stereo not given) | active: -102% |
| O=C(Nc1nc(SCc2ccc(F)cc2)ns1)c1ccco1 | inconclusive: -78.5% |
| Cc1ccc(C)c(NC(=O)Cn2nc(C)c3ccccc3c2=O)c1 | inconclusive: -61.3% |
| COc1ccc(C2CC(c3ccc(OC)cc3)n3nc(NC(=O)c4cccs4)nc3N2)cc1 (stereo not given) | inconclusive: -65.6% |

Source: PubChem BioAssay AID651550 (National Center for Advancing Translational Sciences (NCATS), 2012)
